In PubChem BioAssay AID493014 (National Center for Advancing Translational Sciences (NCATS), 2011):
The list shows a part of the results. These are further read-outs of the screen, such as a control signal, another cell line or another target. No call is given for them. Most of these compounds were active or inconclusive in the main read-out, so they are no random draw. Potencies come from curve fits of mixed quality, noted in brackets.

Assay: qHTS Assay to Find Inhibitors of Chronic Active B-Cell Receptor Signaling
Conditions: ABC-DLBCL IkBa-CBG/CBR reporter, luminescence ratio (green luciferase fused to IkBa over red control in TMD8 lymphoma cells), 4 h
Summary of the method: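 TMD8 ABC-DLBCL cells carrying doxycycline-inducible green luciferase fused to IkappaBalpha plus unfused red luciferase were exposed to compounds (up to 46 uM) for 4 hrs at 37C. Activity came from the overlap-corrected green/red luminescence ratio.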

[1] = measured here: CBR red luminescence, cell number

Compound	AC50 [1]	AC50 (measured here: IkBa-CBG green luminescence)
OC(CCN1CCCCC1)(c1ccccc1)c1ccccc1	9.2 µM [rising, partial curve, poor fit]	–
OC(CNC1CCCCC1)COCCOc1ccc(Br)cc1 (centres undefined)	9.2 µM [falling, partial curve, poor fit]	–
COc1ccc(N(CC(=O)Nc2ccc(OC)cc2OC)S(=O)(=O)c2ccccc2)cc1	0.447 µM [falling, full curve, poor fit]	–
CC(=O)c1cccc(Nc2nc3ccccc3n3cnnc23)c1	11.2 µM [falling, partial curve, poor fit]	–
CCNc1nc(NCC)nc(N/N=C(\C)c2ccc(OC)cc2)n1	11.2 µM [falling, partial curve]	–
COc1ccc(NS(=O)(=O)c2cccc(C(=O)NN=Cc3ccc(OC)cc3OC)c2)cc1	0.651 µM [rising, full curve, poor fit]	–
O=C(/C=C\Nc1cccc(F)c1)c1cccs1	23.1 µM [falling, partial curve]	–
COc1cc(OC)c(N(C)S(=O)(=O)c2cccc(C(=O)Nc3nc(C)cs3)c2)cc1Cl	23.1 µM [falling, single point]	–
Cc1ccc(NC(=O)COc2ccc(Br)cc2CO)cc1S(=O)(=O)N1CCOCC1	32.6 µM [falling, single point]	–
N/C(=N\OCc1ccccc1)c1nonc1N	35.5 µM [falling, single point]	–
FC(F)(F)c1cnc(COc2ccc(Cl)cc2Cl)c(Cl)c1	25.1 µM [rising, single point]	–
O=C(CN1CCSCC1)N1CCc2[nH]c3ccc(Br)cc3c2C1	23.1 µM [falling, single point]	–
Cc1oc(-c2ccc3ccccc3c2)nc1CN(C)C(C)c1ccncn1 (centres undefined)	3.55 µM [rising, single point]	–
Cc1ccnc(NC(=O)c2ccc(OCc3c(C)noc3C)cc2)c1	4.11 µM [rising, partial curve, poor fit]	5.17 µM [falling, partial curve, poor fit]
CC(=O)c1ccccc1NC(=O)c1ccc(N2CCCC2=O)cc1	2.31 µM [falling, full curve]	–
Cc1ccc(C(=O)NC(=C(Cl)Cl)S(=O)(=O)c2ccc(Cl)cc2)cc1	31.6 µM [falling, single point]	–
Cc1ccc(N2CCN(CC(O)COc3ccccc3)CC2)cc1 (centres undefined)	3.16 µM [rising, full curve, poor fit]	–

Compound	AC50 [1]	AC50 (measured here: IkBa-CBG green luminescence)
O=C(N/N=C/c1cccnc1)c1ccccc1OCc1ccc(Cl)cc1	2.24 µM [falling, full curve]	–
CCNC(=O)COc1ccc(Br)cc1Cl	32.6 µM [rising, single point]	–
COc1cccc(C(=O)N/N=c2/oc3ccccc3cc2C(N)=O)c1	10 µM [falling, single point]	–
CC(C)Cn1c(CN2CCN(C(=O)c3ccco3)CC2)nc2c1c(=O)n(C)c(=O)n2C	12.6 µM [rising, single point]	–
O=C(NCc1cccs1)C(=O)c1c[nH]c2ccccc12	1.26 µM [falling, full curve]	–
O=C(NCCN1C(=O)S/C(=C\c2ccccc2)C1=O)C1CCN(S(=O)(=O)c2cccs2)CC1	4.11 µM [rising, full curve, poor fit]	–
Cc1ccc(C)c(C(=O)C(C)Sc2nc3nn(-c4ccccc4)c(=O)c-3c3n2CCCCC3)c1 (centres undefined)	28.2 µM [falling, partial curve, poor fit]	–
COc1ccc(C(C(=O)NCC2CCCO2)N(C(=O)CNC(=O)c2ccco2)c2ccccc2)cc1OC (centres undefined)	20 µM [rising, partial curve, poor fit]	–
COc1ccc(C)cc1NC(=O)N1CCCc2ccccc21	3.55 µM [rising, partial curve, poor fit]	–
COc1cccc2c1Oc1cc([N+](=O)[O-])cc(N(C)C(C)=O)c1C=C2	14.1 µM [rising, single point]	–
Nc1nnn(CC(=O)N/N=C/C=C/c2ccccc2)n1	11.2 µM [rising, partial curve, poor fit]	–
Cc1nc(N2CCC(C)CC2)c(C#N)c(C)c1[N+](=O)[O-]	25.1 µM [rising, single point]	–
CN(Cc1nc2ccccc2c(=O)[nH]1)C(=O)c1ccc(NC(=O)CSc2nnnn2C)cc1	4.11 µM [rising, full curve]	–
COc1ccccc1N1CCN(C(=O)CSc2nc3ccccc3o2)CC1	0.651 µM [falling, full curve, poor fit]	–
Cc1ccc(NC(=S)NCC23C=CC(O2)C2C(=O)N(c4ccc(C)cc4)C(=O)C23)cc1 (centres undefined)	29.1 µM [falling, single point]	–
CCCCC(=O)NC(=S)Nc1cccc(C(=O)O)c1	35.5 µM [falling, single point]	–

Part of the list above, reformatted:
Compound | AC50 [1] | AC50 (measured here: IkBa-CBG green luminescence)
CCNC(=O)COc1ccc(Br)cc1Cl | 32.6 µM [rising, single point] | –
COc1cccc(C(=O)N/N=c2/oc3ccccc3cc2C(N)=O)c1 | 10 µM [falling, single point] | –
